Reference: PubChem BioAssay AID1259405 (NCATS, 2018)
Assay: 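Mouse-designed siRNAs used to find CHO productivity engineering targets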 (primary screen). Cells: Chinese hamster CHO-K1 ovary cells with stable secreted eGFP expression. Reagent: single siRNA against mouse genes, 0.8 pmol siRNA per well (2 µl of 400 nM stock). Duration: 3 days. Measurement: 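Percent of the per-plate non-targeting control median for intracellular GFP per well by laser scanning cytometry and for cell viability by ATP luminescence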. Reading the numbers: GFP, % of control: higher = more GFP per well, higher productivity; viability (ATP), % of control: higher = more viable cells (more ATP). Call rule: 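a knock-down is called active if GFP reaches 120% or more of non-targeting control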.
The deposit covers about 50,000 reagents; this is an unselected part. About 4,000 of them (8%) were called active. 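Mouse siRNA library applied to hamster cells; one well for each siRNA.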 The numbers tell different reagents against one gene apart.

| Target gene | siRNA no. | GFP, % of control | viability (ATP), % of control | Outcome |
| --- | --- | --- | --- | --- |
| Pcdhac1 | 1 | 68.8 | 63.8 | inactive |
| Pcdhac1 | 2 | 86.8 | 83.5 | inactive |
| Pcdhac1 | 3 | 76.6 | 58.4 | inactive |
| Rae1 | 1 | 84.6 | 103 | inactive |
| Rae1 | 2 | 78.4 | 83 | inactive |
| Rae1 | 3 | 47 | 51.2 | inactive |
| Dtymk | 1 | 95.4 | 91.2 | inactive |
| Gng13 | 1 | 75.9 | 70.7 | inactive |
| Gng13 | 2 | 79.3 | 91.5 | inactive |
| Gng13 | 3 | 32.2 | 30.6 | inactive |
| Gpr19 | 1 | 72.1 | 33.5 | inactive |
| Gpr19 | 2 | 87.1 | 65.7 | inactive |
| Gpr19 | 3 | 37.7 | 49 | inactive |
| Vnn3 | 1 | 54.2 | 90.3 | inactive |
| Vnn3 | 2 | 81.9 | 117 | inactive |
| Vnn3 | 3 | 44 | 45.8 | inactive |
| Zbbx | 1 | 57.8 | 39.9 | inactive |
| Zbbx | 2 | 134 | 141 | active |
| Zbbx | 3 | 106 | 121 | inactive |
| Ptprc | 1 | 102 | 97 | inactive |
| Ptprc | 2 | 68.7 | 59.4 | inactive |
| Ptprc | 3 | 94.5 | 105 | inactive |
| Strm | 1 | 63.2 | 67.6 | inactive |
| Strm | 2 | 71.9 | 71.9 | inactive |
| Strm | 3 | 126 | 105 | active |
| Pak1 | 1 | 78.7 | 58.8 | inactive |
| Paqr4 | 1 | 111 | 91 | inactive |
| Paqr4 | 2 | 72.5 | 79.3 | inactive |
| Paqr4 | 3 | 73.8 | 91.4 | inactive |
| Zfp960 | 1 | 74.3 | 49.5 | inactive |
| Zfp960 | 2 | 110 | 67 | inactive |
| Zfp960 | 3 | 77.3 | 67.7 | inactive |
| Ctrb1 | 1 | 104 | 66.8 | inactive |
| Ctrb1 | 2 | 81.4 | 40.4 | inactive |
| Ctrb1 | 3 | 63.5 | 68.9 | inactive |
| Scamp1 | 1 | 69.6 | 58.5 | inactive |
| Scamp1 | 2 | 92.1 | 84 | inactive |
| Scamp1 | 3 | 31.9 | 36.7 | inactive |
| Efemp2 | 1 | 98.1 | 122 | inactive |
| Efemp2 | 2 | 55.8 | 95.8 | inactive |
| Nrp | 1 | 70.2 | 65.8 | inactive |
| Nrp | 2 | 73.9 | 69 | inactive |
| Nrp | 3 | 66.4 | 52.3 | inactive |
| Rpap1 | 1 | 30.6 | 44.1 | inactive |
| Rpap1 | 2 | 30.9 | 52.4 | inactive |
| Rpap1 | 3 | 67.4 | 63.6 | inactive |
| Dnajc30 | 1 | 94.4 | 90.4 | inactive |
| Dnajc30 | 2 | 91.5 | 91.9 | inactive |
| Ntsr1 | 1 | 91.9 | 71.6 | inactive |
| Ntsr1 | 2 | 86.3 | 70.2 | inactive |
| Ntsr1 | 3 | 126 | 89.1 | active |
| Cdc42ep3 | 1 | 80.4 | 93.2 | inactive |
| Cdc42ep3 | 2 | 93.2 | 60.6 | inactive |
| Cdc42ep3 | 3 | 60.4 | 72.9 | inactive |
| Vmn2r-ps11 | 1 | 73 | 89.8 | inactive |
| Vmn2r-ps11 | 2 | 95.2 | 88.8 | inactive |
| Vmn2r-ps11 | 3 | 58.2 | 84.7 | inactive |
| Zswim4 | 1 | 90.7 | 56.3 | inactive |
| Zswim4 | 2 | 47.7 | 53.9 | inactive |
| Zswim4 | 3 | 79.7 | 99.5 | inactive |
| Rdh1 | 1 | 146 | 104 | active |
| Rdh1 | 2 | 84.9 | 73.4 | inactive |
| Rdh1 | 3 | 41.9 | 57.5 | inactive |
| Bbox1 | 1 | 95.3 | 72.3 | inactive |
| Bbox1 | 2 | 48.4 | 21.5 | inactive |
| Bbox1 | 3 | 69.6 | 47.2 | inactive |
| 4933434M16Rik | 1 | 90.6 | 81.2 | inactive |
| 4933434M16Rik | 2 | 62.5 | 71.6 | inactive |
| 4933434M16Rik | 3 | 65.4 | 53.9 | inactive |
| Tmem198b | 1 | 112 | 69.9 | inactive |
| Tmem198b | 2 | 83.5 | 98.6 | inactive |
| Tmem198b | 3 | 91.7 | 106 | inactive |
| Gpr137c | 1 | 151 | 113 | active |
| Gpr137c | 2 | 49.5 | 78.7 | inactive |
| Gpr137c | 3 | 81.1 | 77.6 | inactive |
| Ldb1 | 1 | 130 | 129 | active |
| Ldb1 | 2 | 66.5 | 81.6 | inactive |
| Ldb1 | 3 | 108 | 50.9 | inactive |
| Pald1 | 1 | 99.4 | 54.3 | inactive |
| Pald1 | 2 | 115 | 62.2 | inactive |
| Pald1 | 3 | 67.1 | 123 | inactive |
| Fancb | 1 | 115 | 56.4 | inactive |
| Fancb | 2 | 116 | 102 | inactive |
| Fancb | 3 | 161 | 162 | active |

Part of the list above in another layout.
Target gene	siRNA no.	GFP, % of control	viability (ATP), % of control	Outcome
Dtymk	1	95.4	91.2	inactive
Gng13	1	75.9	70.7	inactive
Gng13	2	79.3	91.5	inactive
Gng13	3	32.2	30.6	inactive
Gpr19	1	72.1	33.5	inactive
Gpr19	2	87.1	65.7	inactive
Gpr19	3	37.7	49	inactive
